This note sets out measurements from PubChem BioAssay AID624405 (Broad Institute, 2012).

Out of some 1,900 compounds screened, about 250 (13%) were called active. Not shown: some 4% with an inconclusive outcome.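 Rule for the calls: active = fitted curve reaches 40% rescue activity at or below the top valid dose, in every test run; inconclusive = test runs disagree, some active and some inactive; inactive = every run misses the threshold or moves the wrong way.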 This is a selection; strong and weak results do not stand in their true shares. Entries with a potency or affinity are not part of this list.

This assay can be described thus: rescue of simvastatin-induced ATP loss – cell-based, C2C12 myotubes, ATP luminescence, cherry pick, dose response (AID 624405).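 Note: myotubes are challenged with simvastatin at 10 µM to lower ATP.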 Conditions: 48 h, scaled: DMSO wells 0, geranylgeraniol wells 100; at 19.5 µM (top of the series) unless noted.
In the case of `Cn1c(-c2ccc(F)cc2)cnc1NCc1ccc(F)cc1`, the rescue activity (ATP increase) was inactive: -41.3%.
In the case of `Oc1ccc(C=NNc2nc3ccccc3s2)c(O)c1`, the rescue activity (ATP increase) was inactive: 0.517%.
For the molecule `C[C@H](CO)N1C[C@H](C)[C@@H](CN(C)Cc2ccc(Oc3ccccc3)cc2)Oc2ccc(NC(=O)Cn3cnnn3)cc2CC1=O`, the rescue activity (ATP increase) is inactive: 24.5%.
Take `COc1ccc(CN(C)C[C@@H]2Oc3ccc(NC(=O)Cc4cn(C)c5ccccc45)cc3CC(=O)N([C@H](C)CO)C[C@H]2C)cc1`: the rescue activity (ATP increase) is inactive: 25.8%.
On to `COc1ccccc1OCCNC1CCCC1`, for which the rescue activity (ATP increase) was inactive: 13%.
For `C[C@H](CO)N1C[C@H](C)[C@@H](CN(C)Cc2ccc(Cl)c(Cl)c2)Oc2ccc(NS(=O)(=O)c3cccs3)cc2CC1=O`, the rescue activity (ATP increase) was inactive: -10.7%.
For the molecule `C[C@H](CO)N1C[C@H](C)[C@@H](CN(C)S(=O)(=O)c2cccs2)Oc2ccc(NC(=O)Nc3cccc4ccccc34)cc2C1=O`, the rescue activity (ATP increase) was inactive: 24.4%.
With `O=C(O)C1CCC(=O)N(C2CC2)C1c1ccccc1` (configuration not stated) the figure was inactive: -7.94%; with `C[C@H]1CN([C@@H](C)CO)C(=O)c2cccc(NC(=O)C3CCCCC3)c2O[C@@H]1CN(C)S(=O)(=O)c1ccc(Cl)cc1`, inactive: 16.4%; with `COc1ccc(C(N)CCc2ccc(C)o2)cc1` (configuration not stated), inactive: 20.9%.
On to `O=C(NCc1ccc(Cl)c(Cl)c1)c1cccnc1`, for which the rescue activity (ATP increase) was inactive: 20.5%.
Regarding `COc1cccc(CC(NC(C)=O)C(=O)NC2CCN(c3nc(C)cc(C)c3C#N)CC2)c1` (configuration not stated), the rescue activity (ATP increase) was inactive: -23.4%.
As to `C[C@@H]1CN([C@H](C)CO)C(=O)c2cccc(NS(=O)(=O)c3cccs3)c2O[C@@H]1CN(C)S(=O)(=O)c1cccs1`, the rescue activity (ATP increase) is inactive: 16.3%.
With `Cc1noc(C)c1S(=O)(=O)Nc1ccc2c(c1)CC(=O)N([C@H](C)CO)C[C@@H](C)[C@@H](CN(C)Cc1ccc(Cl)c(Cl)c1)O2` the figure was inactive: 25.4% [at 21 µM]; with `CCOC(=O)c1c(NC(=O)CSc2nnc(C)c(=O)[nH]2)sc2c1CCC2`, inactive: -9.67%; with `CC(C)CNC(=O)CN(C1CCCCC1)S(=O)(=O)c1ccccc1`, inactive: -0.134%.
Turning to `C[C@@H]1CN([C@H](C)CO)C(=O)c2cc(NS(=O)(=O)c3ccc(Cl)cc3)ccc2O[C@@H]1CN(C)C(=O)Nc1ccccc1`, the rescue activity (ATP increase) is inactive: 1.03%.
Take `CC(=O)N1c2ccc(S(=O)(=O)NCCC(=O)NCCc3ccc(C)cc3)cc2CC1C` (configuration not stated): the rescue activity (ATP increase) is inactive: -9.48%.
`C[C@@H]1CCCCO[C@@H](CN(C)S(=O)(=O)c2ccc(Cl)cc2)[C@H](C)CN([C@@H](C)CO)C(=O)c2cc(NS(C)(=O)=O)ccc2O1`: the rescue activity (ATP increase) is inactive: -0.084%.
Take `C[C@H](CO)N1C[C@H](C)[C@@H](CN(C)S(=O)(=O)c2ccc(F)cc2)Oc2ccc(NC(=O)Cc3cn(C)c4ccccc34)cc2CC1=O`: the rescue activity (ATP increase) is inactive: 3.11%.
Take `Cc1cccc(NCCNc2cccc(C)c2)c1`: the rescue activity (ATP increase) was inactive: -5.24%.
With `CCC(C)(CCNC(=O)Cc1ccccc1)c1ccccc1OC` (configuration not stated), the rescue activity (ATP increase) is inactive: 7.25%.
With `Cc1ccc(C(=O)N(c2ccccn2)C(C)c2ccco2)cc1C` (configuration not stated), the rescue activity (ATP increase) is inactive: 9.09%.
Turning to `CC(C(=O)N1CCCc2ccccc21)N1C(=O)c2ccccc2C1=O` (configuration not stated), the rescue activity (ATP increase) is inactive: -3.35%.
For `CC(C)NC(=O)NC(=O)COC(=O)c1ccc(NC(=O)CC#N)cc1`, the rescue activity (ATP increase) was inactive: 0.166%.
Turning to `COc1ccc(NC(=O)Cn2ccc(C(F)(F)F)n2)cc1S(=O)(=O)N1CCOCC1`, the rescue activity (ATP increase) is inactive: 16.8%.
In the case of `CCCNC(=O)c1ccc(CNc2c(N3CCC(C(=O)OCC)CC3)c(=O)c2=O)cc1`, the rescue activity (ATP increase) was inactive: -4.49%.
Next, `COc1ccc(S(=O)(=O)Nc2ccc3c(c2)C(=O)N([C@@H](C)CO)C[C@@H](C)[C@@H](CN(C)C(=O)Nc2cccc4ccccc24)OCCCC[C@H](C)O3)cc1`: inactive: 10.9%; `C[C@@H]1CCCCO[C@@H](CN(C)Cc2ccc(C(F)(F)F)cc2)[C@H](C)CN([C@@H](C)CO)C(=O)c2cc(NC(=O)CCC(F)(F)F)ccc2O1`: inactive: 27.3%.
As for `CN1C(=O)CC(N2CCN(c3ccccc3)CC2)C1=O` (configuration not stated), the rescue activity (ATP increase) is inactive: 8.75%.
In the case of `CCOc1ccc(S(=O)(=O)NCC(=O)N(C)Cc2cccnc2)cc1`, the rescue activity (ATP increase) was inactive: 15.8%.
Take `O=C(c1ccc2c(c1)C(=O)N(c1ccc(Cl)cc1)C2=O)N1CCN(c2ccccn2)CC1`: the rescue activity (ATP increase) was inactive: -6.89%.
Regarding `COC(=O)c1ccccc1COn1c(=O)c(C)[n+]([O-])c2ccccc21`, the rescue activity (ATP increase) was inactive: -9.34%.
With `O=c1c2cnn(-c3ccc(F)cc3)c2ncn1Cc1ccccc1` the figure was inactive: 15%.
As to `Cc1cc(Cl)c(S(=O)(=O)NCc2ccncc2)cc1OCC(N)=O`, the rescue activity (ATP increase) is inactive: -0.604%.
As for `COc1ccc(C(=O)c2cn[nH]c2-c2cc(Cl)ccc2O)cc1`, the rescue activity (ATP increase) is inactive: 16.4%.
With `O=C(NCCCCNC(=O)c1ccc(Cl)s1)c1ccc(Cl)s1` the figure was inactive: 8.39%; with `CN1CCC(=NNC(=O)CN(c2ccc(Oc3ccccc3)cc2)S(C)(=O)=O)CC1`, inactive: 23.3%; with `C[C@H](CO)N1C[C@H](C)[C@H](CN(C)C(=O)Nc2ccc(C(F)(F)F)cc2)OCCCC[C@H](C)Oc2ccc(NC(=O)c3ccccc3)cc2C1=O`, inactive: -9.02%.
Take `COCC(=O)Nc1nc(-c2ccc(C)cc2)c(C)s1`: the rescue activity (ATP increase) was inactive: 5.75%.
Take `COc1cccc(C#Cc2cnc3c(c2)C(=O)N([C@@H](C)CO)C[C@H](C)[C@H](CN(C)C(=O)C2CCC2)O3)c1`: the rescue activity (ATP increase) is inactive: 10.4%.
Next, `C[C@@H]1CN([C@@H](C)CO)C(=O)Cc2cc(NS(=O)(=O)c3cn(C)cn3)ccc2O[C@H]1CN(C)Cc1ccc(-c2ccccc2)cc1`: inactive: 26.3%; `O=C1c2ccccc2C(=O)N1CN(C(=O)COc1ccccc1)c1ccc(F)cc1`: inactive: 14.1%.
Take `COc1ccc(N=Cc2sc(O)c3ccccc23)cc1`: the rescue activity (ATP increase) was inactive: 19.5%.
With `C[C@@H]1CN([C@H](C)CO)C(=O)c2cc(NC(=O)Cn3cnnn3)ccc2O[C@@H]1CN(C)Cc1ccc(C(=O)Nc2ccccc2N)cc1` the figure was inactive: 30%; with `C[C@@H]1CN([C@@H](C)CO)C(=O)c2cc(NC(=O)Cc3cn(C)c4ccccc34)ccc2O[C@@H]1CN(C)S(=O)(=O)c1cccs1`, inactive: 21.2%; with `CCOc1cc2[nH]c(=S)n(CCOC)c(=O)c2cc1OCC`, inactive: -1.84%.
With `COCCn1nnnc1C(c1ccccc1)N1CCN(Cc2ccc3c(c2)OCO3)CC1` (configuration not stated) the figure was inactive: 12.2%; with `O=c1[nH]c(N2CCOCC2)nc2c1CCCC2`, inactive: 36.9%.
As for `Cn1nnc2c(sc3nc(N4CCOCC4)c4c(c32)CCCC4)c1=O`, the rescue activity (ATP increase) is inactive: 1.91%.
Turning to `c1cc2cc(-c3c(-c4ccc5c(c4)OCO5)noc3-c3ccsc3)ccc2[nH]1`, the rescue activity (ATP increase) is inactive: 4.15%.
Turning to `Cc1cc(N2CCN(c3ccccc3)CC2)n2nnnc2n1`, the rescue activity (ATP increase) was inactive: 7.84%.
Turning to `C[C@@H]1CN([C@H](C)CO)C(=O)Cc2cc(NC(=O)Nc3cccc4ccccc34)ccc2O[C@@H]1CN(C)S(=O)(=O)c1cccs1`, the rescue activity (ATP increase) was inactive: 9.53%.
In the case of `CCOC(=O)N1CCN(C(=O)Cc2ccsc2)CC1`, the rescue activity (ATP increase) was inactive: -30.6%.
Regarding `COc1ccc(C(=O)N2C[C@@H]3[C@H](c4ccccc42)[C@@H](CO)N3Cc2ccccc2)cc1`, the rescue activity (ATP increase) is inactive: -1.26% [at 21 µM].
With `COc1ccc(S(=O)(=O)N(C)C[C@@H]2OCCCC[C@H](C)Oc3ccc(NC(=O)Nc4c(C)noc4C)cc3C(=O)N([C@@H](C)CO)C[C@H]2C)cc1`, the rescue activity (ATP increase) is inactive: -10.9%.
`Cc1ccc2nc(Nc3ccccc3O)nc(-c3ccccc3)c2c1`: the rescue activity (ATP increase) was inactive: 26.1%.
In the case of `CCN(CC)Cc1csc2ccc(Br)cc12`, the rescue activity (ATP increase) was inactive: -7.24%.
Turning to `Cc1noc(C)c1NC(=O)Nc1ccc2c(c1)CC(=O)N([C@H](C)CO)C[C@H](C)[C@@H](CN(C)Cc1ccc(-c3ccccc3)cc1)O2`, the rescue activity (ATP increase) is inactive: 12.7%.
Regarding `CCOc1ccccc1NC(=O)Cn1cnc2c(cnn2-c2ccc(C)c(C)c2)c1=O`, the rescue activity (ATP increase) was inactive: -30.8%.
Take `CCOC(=O)C1=NN(C(=O)Nc2ccc(OC)cc2)C2C(=O)N(c3cccc(C(F)(F)F)c3)C(=O)C12` (configuration not stated): the rescue activity (ATP increase) is inactive: -0.776%.
In the case of `C[C@H](CO)N1C[C@H](C)[C@H](CN(C)Cc2ccc(Oc3ccccc3)cc2)Oc2ccc(NC(=O)Nc3ccc(F)cc3)cc2CC1=O`, the rescue activity (ATP increase) is inactive: -9.22% [at 21 µM].
For the molecule `Cc1nc(CSc2ccc(Cl)cc2)cc(N2CC(C)OC(C)C2)n1` (configuration not stated), the rescue activity (ATP increase) was inactive: -17.7%.
For `Cc1nc2nc(CSc3nnc(C)s3)cc(=O)n2[nH]1`, the rescue activity (ATP increase) is inactive: 22.8%.
Consider `COc1ccc(NC(=O)Nc2ccc3c(c2)C(=O)N([C@H](C)CO)C[C@@H](C)[C@@H](CN(C)Cc2ccc(C(F)(F)F)cc2)OCCCC[C@H](C)O3)cc1`, for which the rescue activity (ATP increase) was inactive: 8.75% [at 10 µM].
On to `C[C@@H]1CCCCO[C@@H](CN(C)C(=O)C2CCCCC2)[C@H](C)CN([C@@H](C)CO)C(=O)c2cc(NC(=O)c3ccncc3)ccc2O1`, for which the rescue activity (ATP increase) is inactive: 23.3%.
Consider `Cc1c(NC(=O)C(C)OC(=O)COc2cccc3c2OC(C)(C)C3)c(=O)n(-c2ccccc2)n1C` (configuration not stated), for which the rescue activity (ATP increase) is inactive: 16.2%.
As to `COc1cc(-c2noc(-c3ccccc3C(=O)NCc3ccco3)n2)cc(OC)c1OC`, the rescue activity (ATP increase) was inactive: 15.9%.
Regarding `Cc1ccc(-c2csc(-c3c[nH]c4ccccc34)n2)cc1`, the rescue activity (ATP increase) was inactive: -86.9%.
Take `COc1ccc(S(=O)(=O)Nc2ccc3c(c2)C(=O)N([C@@H](C)CO)C[C@@H](C)[C@@H](CN(C)Cc2ccc4c(c2)OCO4)OCCCC[C@H](C)O3)cc1`: the rescue activity (ATP increase) was inactive: -18.4%.
For `Cc1cc(NC(=O)COC(=O)C2CCN(C(=O)c3ccc(Cl)cc3)CC2)no1`, the rescue activity (ATP increase) was inactive: -12.9%.
As to `C[C@@H]1CCCCO[C@@H](CN(C)C(=O)Nc2cccc3ccccc23)[C@H](C)CN([C@@H](C)CO)C(=O)c2cc(NC(=O)c3ccncc3)ccc2O1`, the rescue activity (ATP increase) is inactive: 3.44%.
